Measurements taken from patent US20230235333.

By UniProt entry, the sequences of proteins in these tests, tags left out. Residues count along the entry.
UniProt Q9HBE4, 25-162: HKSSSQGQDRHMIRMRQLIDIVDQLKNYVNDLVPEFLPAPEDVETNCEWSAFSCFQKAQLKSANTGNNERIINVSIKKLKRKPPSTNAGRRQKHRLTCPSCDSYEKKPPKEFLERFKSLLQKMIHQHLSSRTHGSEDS

What was measured:
[1] = target: IL-21 (interleukin-21) (Homo sapiens) (UniProt Q9HBE4); experiment: activity in cells; conditions: purified recombinant protein
[2] = target: IL-21 (interleukin-21) (Homo sapiens) (UniProt Q9HBE4); experiment: SPR; conditions: purified recombinant protein, protein details: PeproTech, SEQ:44 is the 162 aa listing entry
[3] = target: IL-21 (interleukin-21) (Homo sapiens) (UniProt Q9HBE4); experiment: inhibition of the protein; conditions: 2'-F all pyrimidines, 2'-OH purines; purified recombinant protein; protein details: PeproTech, SEQ:44 is the 162 aa listing entry; dose not given here
[4] = 2'-F all pyrimidines, 10 nM aptamer, binding not measured, protein details: PeproTech, SEQ:44 is the 162 aa listing entry, variant of SEQ5 37mer
[5] = 2'-F all pyrimidines, +, cell inhibition 10.7% at 10 nM, variant of SEQ5 37mer
[6] = 2'-F pyrimidines, 10 nM aptamer, scored −, protein details: Peprotech, variant of SEQ5 37mer, counted as no effect

GGACCUCAACACGCGACUACUCGUGAUUGCCCGUCC [SEQ10]
functional effect of the aptamer [1, 4]: -4.2 % inhibition

GGACCUUCAACACGCACUACUCGUGAUUGCCCGUCC [SEQ12]
functional effect of the aptamer [1, 4]: -7.6 % inhibition

GGACCUUCAACACGCGACACUCGUGAUUGCCCGUCC [SEQ15]
binding result [2, 5]: binds more weakly

GGACCUUCAACACGCGACUACCGUGAUUGCCCGUCC [SEQ18]
functional effect of the aptamer [1, 4]: -6.5 % inhibition

GGACCUUCAACACGCGACUACUCGUGAUUGCCCGUCC [SEQ5(12)]
functional effect of the aptamer ([1]; 2'-OMe C18, 2'-F other pyrimidines, 3' idT, 1 nM aptamer, 9.5% at 0.2 nM, rated -, protein details: PeproTech, SEQ:44 is the 162 aa listing entry, variant of SEQ5 37mer): 20.1 % inhibition

GGACCUUCAACACGCGACUACUCGUGAUUGCCGUCC [SEQ19]
functional effect of the aptamer [1, 4]: -9.8 % inhibition

GGACCUUCAACACGCGACUAUCGUGAUUGCCCGUCC [SEQ17]
functional effect of the aptamer [1, 6]: 7.4 % inhibition

GGACCUUCAACACGCGACUCUCGUGAUUGCCCGUCC [SEQ16]
binding result [2, 5]: binds more weakly

GGACCUUCAACACGCGAUACUCGUGAUUGCCCGUCC [SEQ14]
binding result ([2]; 2'-F all pyrimidines, +, cell inhibition 13.3% at 10 nM, variant of SEQ5 37mer): binds more weakly

GGACCUUCAACACGCGCUACUCGUGAUUGCCCGUCC [SEQ13]
functional effect of the aptamer [1, 4]: -14 % inhibition

GGACCUUCAACACGCGGCUACUCGUGAUUGCCCGUCC [SEQ22(9)]
binding result ([2]; as SEQ22(2) with U6,C8,C23 2'-OMe instead of 2'-F, + (range as defined for Table 2), cell inhibition 84.4% at 1 nM, 50.0% at 0.2 nM, variant of SEQ22(2)): binds more weakly

GGACCUUCAACACGCGGCUACUCGUGAUUGCCCGUCC [SEQ22(10)]
binding result ([2]; as SEQ22(2) with U6,C8,C23,G16 2'-OMe, + (range as defined for Table 2), cell inhibition 70.2% at 1 nM, 29.1% at 0.2 nM, variant of SEQ22(9)): binds more weakly

GGACCUUCAACACGCGGCUACUCGUGAUUGCCCGUCC [SEQ22(11)]
functional effect of the aptamer ([1]; as SEQ22(10) plus 2'-OMe C5,U7, 3'-idT, 1 nM aptamer, protein details: Peprotech, variant of SEQ22(10), counted as no effect): -11.5 % inhibition

GGACCUUCAACACGGACUACUCGUGAUUGCCCGUCC [SEQ11]
functional effect of the aptamer [1, 4]: -1 % inhibition

GGACCUUCAACCCGCGGCUACUCGGGAUUGCCCGUCC [SEQ37]
IC50 ([1]; 2'-F C5,U6,U7,C8,C15,C18,U19,U22,C23,C33, 2'-OH G16,G17, 2'-OMe all others, 3' idT, IFN-gamma secretion from NK92 cells stimulated with human IL-21, protein details: PeproTech, SEQ:44 is the 162 aa listing entry, variant of SEQ28): 20 pM

GGACUUCAACACGCGACUACUCGUGAUUGCCCGUCC [SEQ9]
functional effect of the aptamer [1, 4]: -6.4 % inhibition

GGACUUCAACACGCGACUACUCGUGAUUGCCCUCC [SEQ8]
functional effect of the aptamer ([1]; 2'-F all pyrimidines, 10 nM aptamer, binding not measured, protein details: PeproTech, SEQ:44 is the 162 aa listing entry, variant of SEQ7 35mer): 8.3 % inhibition

GGCAACACGCGACUACUCGUGAUUGCC [SEQ6 27mer]
functional effect of the aptamer [1, 6]: 15.5 % inhibition

GGGAAGCUCCGUCGAGCUUUCCUGCAUAAGCUGUAUUGCAGCCAGCAUUUAUUGUACGCCUGCGUAGCUCCU [SEQ50 negative control 72mer]
functional effect of the aptamer ([1]; negative control, protein details: PeproTech, SEQ:44 is the 162 aa listing entry, dose not given here, counted as no effect): -7.5 % inhibition

GGGAGAAGAACCUUCAACACGCGACUACUCGUGAUUGCCCGUUCUGAGCCCAGACGCUCUGCGCU [SEQ1 65mer]
functional effect of the aptamer [3]: active

For some assays here: Weaker means in comparison with the reference protein, sequence or condition of that experiment. For some assays here: Construct, isoform or probe ends are uncertain for at least one entry.
